Laboratory results published in US20070071746A1, “C/CLP antagonists and methods of use thereof” (MEDIMMUNE, INC., priority 2005, published 2007).
For some of these results: At least one structure is not confirmed: it was looked up by name or label, or the drawing left a doubt. Some entries share one result that the patent states for a list of compounds.

Chains of the proteins cited; added tags and fusions are not shown. Residues count along the entry.
UniProt P17931, 2-250: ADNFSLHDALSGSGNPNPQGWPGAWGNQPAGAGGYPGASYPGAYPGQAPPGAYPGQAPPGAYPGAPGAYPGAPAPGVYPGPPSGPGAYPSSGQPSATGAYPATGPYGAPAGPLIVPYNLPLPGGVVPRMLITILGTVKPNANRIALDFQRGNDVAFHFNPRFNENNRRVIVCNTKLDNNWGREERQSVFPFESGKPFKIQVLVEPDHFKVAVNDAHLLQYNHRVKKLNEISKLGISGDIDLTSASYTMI

Columns and labels:
[1] = target: T1, human AMCase / human galectin 3 (Homo sapiens, UniProt P17931); test: C/CLP-Galectin Interaction ELISA; type: binding
T1 construct: 6xHis (C); made in house; host or cells: HEK293 (AMCase)
Protocol: (§1) C/CLP-Galectin Interaction ELISA: Galectin is immobilized on a microtiter plate in DPBS over night at 2-8° C. The plates are then washed with DPBS, 0.1% Tween 20 and blocked for 1 hour at room temperature. Serial dilutions of biotin labeled AMCase are added to each well and incubated for ˜1 hour at room temperature followed by HRP labeled streptavidin. Horseradish peroxydase activity is detected with TMB substrate (KPL, MD) and the reaction is quenched with 1% H2SO4. The absorbance is read at 450 nm.

[2] = target: T2, human AMCase / human galectin 4 (Homo sapiens, UniProt P56470); test: C/CLP-Galectin Interaction ELISA; type: binding
T2 construct: 6xHis (C); made in house; host or cells: HEK293 (AMCase)
T2 sequence (P56470 1-323): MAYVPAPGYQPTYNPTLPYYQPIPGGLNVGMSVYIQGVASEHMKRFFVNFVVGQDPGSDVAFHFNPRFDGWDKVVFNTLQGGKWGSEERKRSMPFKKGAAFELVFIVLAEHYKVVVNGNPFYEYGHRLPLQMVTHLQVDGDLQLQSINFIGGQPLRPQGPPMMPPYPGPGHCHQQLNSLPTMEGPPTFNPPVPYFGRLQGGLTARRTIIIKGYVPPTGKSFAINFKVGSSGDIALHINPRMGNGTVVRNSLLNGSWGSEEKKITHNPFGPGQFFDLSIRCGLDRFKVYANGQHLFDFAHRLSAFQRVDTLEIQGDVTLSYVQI
Protocol: as §1

[3] = system: Jurkat cells; test: Galectin Induced Calcium Flux; type: cell-based, human; details: 100 μg/ml
Protocol: Galectin Induced Calcium Flux: Jurkat cells were labeled with Fluo-4AM and Fura-Red. galectin-3 (40 μg/ml) was added to the cells and Ca flux was analyzed as FL1/FL3. Analysis was performed for 5 minutes. For interaction analysis gal-3 (40μg/ml) is pre-incubated with huAMCase (100-200 μg/ml) or huChTrase (100-200 μg/ml) for 15 mins at RT prior to addition.

Row | Molecule | inhibition of binding of Human AMCase to Galectin 3 [1] | inhibition of binding of Human AMCase to Galectin 4 [2] | inhibition of galectin-3 induced calcium flux [3]
1 | CC(=O)N[C@H]1[C@H](O[C@H]2[C@@H](O)[C@@H](NC(C)=O)[C@H](O[C@H]3[C@H](O)[C@H]4N=C(N(C)C)O[C@H]4[C@@H]3CO)O[C@@H]2CO)O[C@H](CO)[C@@H](O)[C@H]1O [allosamidin, reference compound] | not | not | –
2 | AMCase: recombinant human acidic mammalian chitinase | – | – | 30-40%
3 | Cht: recombinant human chitotriosidase | – | – | 30-40%
